Experiment: general procedure: Fmoc solid-phase peptide synthesis; 2-chlorotrityl chloride resin; HATU/DIPEA; DIC/OxymaPure; HBTU/DIPEA (conjugations); carbonyldiimidazole/DIPEA
Details: whole synthesis

Substance: H-D-Phe-D-Phe-wCap-Lys-CO-Glu (OtBu)-OtBu
- crude yield: 80%
